Results reported in patent publication US7067646.
No constants are given. Whether binding was seen depends on the method and setting. In cells and extracts the contact can be indirect. Some binding calls cover weakened binding; strength is not graded here. Tags and fused reporters may be left off the sequences shown.

Amino acid sequences for entries named in this document (tags omitted). A change or cut given only in a name is not applied to a line headed by its entry.
UniProt Q5T4S7: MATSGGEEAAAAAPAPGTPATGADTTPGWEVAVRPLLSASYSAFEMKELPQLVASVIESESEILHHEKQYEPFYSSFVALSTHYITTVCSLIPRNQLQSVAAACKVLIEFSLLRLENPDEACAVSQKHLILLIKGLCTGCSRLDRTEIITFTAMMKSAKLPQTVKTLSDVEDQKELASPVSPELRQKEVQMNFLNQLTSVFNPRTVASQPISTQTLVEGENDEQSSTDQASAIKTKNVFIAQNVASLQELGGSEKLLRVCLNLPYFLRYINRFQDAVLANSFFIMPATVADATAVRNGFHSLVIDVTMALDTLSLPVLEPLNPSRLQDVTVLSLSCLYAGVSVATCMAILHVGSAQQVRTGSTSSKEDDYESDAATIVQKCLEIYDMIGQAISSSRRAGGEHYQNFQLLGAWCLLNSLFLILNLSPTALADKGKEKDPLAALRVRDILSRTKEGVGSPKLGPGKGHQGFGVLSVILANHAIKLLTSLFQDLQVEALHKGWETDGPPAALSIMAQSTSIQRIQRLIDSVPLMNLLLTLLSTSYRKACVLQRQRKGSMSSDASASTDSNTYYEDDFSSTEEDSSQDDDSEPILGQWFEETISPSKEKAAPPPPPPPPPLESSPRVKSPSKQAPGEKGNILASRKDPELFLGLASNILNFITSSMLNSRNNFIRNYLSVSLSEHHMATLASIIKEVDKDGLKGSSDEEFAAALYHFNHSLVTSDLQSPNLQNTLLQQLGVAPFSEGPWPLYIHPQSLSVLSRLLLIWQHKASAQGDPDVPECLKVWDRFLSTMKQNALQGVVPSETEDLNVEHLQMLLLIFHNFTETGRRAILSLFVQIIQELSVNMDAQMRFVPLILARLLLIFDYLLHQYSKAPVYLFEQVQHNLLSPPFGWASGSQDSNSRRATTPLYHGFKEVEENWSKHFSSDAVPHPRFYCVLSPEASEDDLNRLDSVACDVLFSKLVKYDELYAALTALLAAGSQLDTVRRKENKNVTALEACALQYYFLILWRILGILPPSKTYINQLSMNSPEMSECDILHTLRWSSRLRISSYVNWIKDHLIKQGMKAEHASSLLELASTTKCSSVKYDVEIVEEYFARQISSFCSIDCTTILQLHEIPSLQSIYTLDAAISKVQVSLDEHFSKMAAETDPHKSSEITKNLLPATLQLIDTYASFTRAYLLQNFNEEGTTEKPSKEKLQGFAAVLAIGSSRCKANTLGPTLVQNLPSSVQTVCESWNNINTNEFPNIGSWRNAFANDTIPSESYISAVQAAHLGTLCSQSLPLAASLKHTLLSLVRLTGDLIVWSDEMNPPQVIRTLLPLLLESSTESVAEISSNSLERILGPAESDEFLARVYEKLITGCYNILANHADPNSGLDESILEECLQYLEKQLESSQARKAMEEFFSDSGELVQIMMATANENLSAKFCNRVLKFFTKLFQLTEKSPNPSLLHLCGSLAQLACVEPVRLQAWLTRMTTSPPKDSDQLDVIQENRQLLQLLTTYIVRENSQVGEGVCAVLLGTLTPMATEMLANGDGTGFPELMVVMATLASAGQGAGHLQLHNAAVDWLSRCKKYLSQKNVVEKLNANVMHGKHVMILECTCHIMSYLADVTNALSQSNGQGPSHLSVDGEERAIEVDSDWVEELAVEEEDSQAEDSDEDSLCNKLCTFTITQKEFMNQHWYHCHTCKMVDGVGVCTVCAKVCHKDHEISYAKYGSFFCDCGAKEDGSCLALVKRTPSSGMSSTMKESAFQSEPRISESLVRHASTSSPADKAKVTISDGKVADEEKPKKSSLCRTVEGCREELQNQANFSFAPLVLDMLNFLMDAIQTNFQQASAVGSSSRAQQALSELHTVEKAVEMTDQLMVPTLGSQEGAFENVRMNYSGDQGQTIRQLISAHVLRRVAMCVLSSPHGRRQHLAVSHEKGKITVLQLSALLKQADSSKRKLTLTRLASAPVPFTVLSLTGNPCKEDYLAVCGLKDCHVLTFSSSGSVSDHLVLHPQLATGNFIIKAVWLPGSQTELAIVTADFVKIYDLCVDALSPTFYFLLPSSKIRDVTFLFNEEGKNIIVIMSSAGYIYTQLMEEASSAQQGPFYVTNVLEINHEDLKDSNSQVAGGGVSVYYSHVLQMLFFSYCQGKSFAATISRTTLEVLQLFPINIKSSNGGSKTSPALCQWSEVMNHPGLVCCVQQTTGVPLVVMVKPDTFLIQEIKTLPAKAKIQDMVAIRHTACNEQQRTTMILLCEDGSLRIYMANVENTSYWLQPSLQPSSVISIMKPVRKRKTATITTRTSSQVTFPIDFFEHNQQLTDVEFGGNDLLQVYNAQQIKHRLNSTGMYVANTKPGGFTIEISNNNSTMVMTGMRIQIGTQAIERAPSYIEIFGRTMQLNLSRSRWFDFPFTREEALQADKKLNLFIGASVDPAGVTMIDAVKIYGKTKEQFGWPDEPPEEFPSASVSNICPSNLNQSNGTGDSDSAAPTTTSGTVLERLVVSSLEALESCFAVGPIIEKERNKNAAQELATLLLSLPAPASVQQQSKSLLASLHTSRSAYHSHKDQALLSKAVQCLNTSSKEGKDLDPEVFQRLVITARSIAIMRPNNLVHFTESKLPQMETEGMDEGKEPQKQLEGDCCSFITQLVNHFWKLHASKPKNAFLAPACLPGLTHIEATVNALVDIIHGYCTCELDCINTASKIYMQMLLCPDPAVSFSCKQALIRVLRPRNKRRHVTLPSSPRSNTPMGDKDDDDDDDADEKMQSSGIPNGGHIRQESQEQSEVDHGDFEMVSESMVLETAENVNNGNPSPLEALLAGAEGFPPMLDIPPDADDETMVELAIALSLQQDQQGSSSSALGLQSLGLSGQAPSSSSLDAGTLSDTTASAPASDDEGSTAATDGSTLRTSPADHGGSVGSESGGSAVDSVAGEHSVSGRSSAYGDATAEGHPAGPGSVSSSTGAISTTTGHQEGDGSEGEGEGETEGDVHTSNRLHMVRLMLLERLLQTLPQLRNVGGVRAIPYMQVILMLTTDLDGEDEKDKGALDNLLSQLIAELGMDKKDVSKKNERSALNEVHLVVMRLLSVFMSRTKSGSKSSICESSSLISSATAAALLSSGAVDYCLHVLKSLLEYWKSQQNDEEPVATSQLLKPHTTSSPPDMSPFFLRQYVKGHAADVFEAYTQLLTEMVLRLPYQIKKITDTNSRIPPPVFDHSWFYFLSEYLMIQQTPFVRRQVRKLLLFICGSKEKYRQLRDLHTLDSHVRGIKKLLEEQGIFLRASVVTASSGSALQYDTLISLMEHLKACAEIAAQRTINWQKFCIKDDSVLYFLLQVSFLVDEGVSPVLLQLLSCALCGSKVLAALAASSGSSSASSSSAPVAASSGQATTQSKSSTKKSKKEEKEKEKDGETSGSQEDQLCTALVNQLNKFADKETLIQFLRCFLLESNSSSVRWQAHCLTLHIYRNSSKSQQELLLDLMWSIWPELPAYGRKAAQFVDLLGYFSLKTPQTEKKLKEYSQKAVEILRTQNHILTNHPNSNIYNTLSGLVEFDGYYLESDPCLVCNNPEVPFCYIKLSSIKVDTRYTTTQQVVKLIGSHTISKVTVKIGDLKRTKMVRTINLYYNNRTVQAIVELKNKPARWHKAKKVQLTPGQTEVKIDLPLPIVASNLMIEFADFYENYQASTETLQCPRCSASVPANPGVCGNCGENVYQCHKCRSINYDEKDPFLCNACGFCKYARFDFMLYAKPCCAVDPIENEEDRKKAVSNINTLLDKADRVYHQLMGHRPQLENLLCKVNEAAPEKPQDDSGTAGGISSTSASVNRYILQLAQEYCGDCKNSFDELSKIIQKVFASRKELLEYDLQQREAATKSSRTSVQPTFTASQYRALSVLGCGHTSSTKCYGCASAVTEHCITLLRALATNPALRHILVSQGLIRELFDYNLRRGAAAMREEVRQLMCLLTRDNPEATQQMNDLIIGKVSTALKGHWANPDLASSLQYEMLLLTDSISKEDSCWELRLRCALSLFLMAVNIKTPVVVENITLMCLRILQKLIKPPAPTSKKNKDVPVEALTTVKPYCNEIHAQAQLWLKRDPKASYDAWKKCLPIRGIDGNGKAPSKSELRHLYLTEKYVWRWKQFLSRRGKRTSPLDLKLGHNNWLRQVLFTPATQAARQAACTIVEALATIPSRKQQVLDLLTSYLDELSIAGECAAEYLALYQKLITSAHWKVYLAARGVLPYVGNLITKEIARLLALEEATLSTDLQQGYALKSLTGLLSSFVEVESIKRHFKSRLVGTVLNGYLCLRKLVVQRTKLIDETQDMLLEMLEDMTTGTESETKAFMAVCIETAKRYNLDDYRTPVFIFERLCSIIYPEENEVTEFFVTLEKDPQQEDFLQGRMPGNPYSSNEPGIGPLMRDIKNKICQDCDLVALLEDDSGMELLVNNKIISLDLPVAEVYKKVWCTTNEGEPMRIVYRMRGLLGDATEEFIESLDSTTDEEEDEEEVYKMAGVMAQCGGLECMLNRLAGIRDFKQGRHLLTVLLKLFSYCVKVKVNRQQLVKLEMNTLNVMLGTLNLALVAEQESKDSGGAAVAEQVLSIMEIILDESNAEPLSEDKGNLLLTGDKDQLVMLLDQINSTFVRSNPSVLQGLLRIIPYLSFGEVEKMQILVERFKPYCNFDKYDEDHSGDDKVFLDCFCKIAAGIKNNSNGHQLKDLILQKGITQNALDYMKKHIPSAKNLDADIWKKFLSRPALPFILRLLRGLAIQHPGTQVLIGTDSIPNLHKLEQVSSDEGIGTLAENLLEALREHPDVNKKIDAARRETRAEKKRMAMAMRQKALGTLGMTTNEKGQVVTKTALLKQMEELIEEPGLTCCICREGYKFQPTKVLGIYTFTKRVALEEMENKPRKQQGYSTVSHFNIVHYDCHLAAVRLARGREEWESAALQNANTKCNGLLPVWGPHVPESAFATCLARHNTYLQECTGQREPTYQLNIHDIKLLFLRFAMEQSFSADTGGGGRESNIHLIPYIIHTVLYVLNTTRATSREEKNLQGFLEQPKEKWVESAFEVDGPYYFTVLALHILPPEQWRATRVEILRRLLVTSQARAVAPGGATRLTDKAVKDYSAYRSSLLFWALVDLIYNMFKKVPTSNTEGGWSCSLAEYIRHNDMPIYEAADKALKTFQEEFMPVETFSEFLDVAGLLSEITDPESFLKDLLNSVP

Legend:
[1] = target: MTAF600 (microtubule associated factor 600) (human) (UniProt Q5T4S7); assay: GST pull-down of large pocket domains, immunoblot
[2] = target: MTAF600 (microtubule associated factor 600) (human) (UniProt Q5T4S7); assay: GST pull-down from HeLa nuclear extract, anti-MTAF600 immunoblot

binding [1]: binds
binding [2]: binds
B1: GST fusion of the large pocket domain of p107 (protein, UniProt P28749 385-1068, looked up, not shown: a dimerising Fc or GST)
chain: TPVASATQSVSRLQSIVAGLKNAPSDQLINIFESCVRNPVENIMKILKGIGETFCQHYTQSTDEQPGSHIDFAVNRLKLAEILYYKILETVMVQETRRLHGMDMSVLLEQDIFHRSLMACCLEIVLFAYSSPRTFPWIIEVLNLQPFYFYKVIEVVIRSEEGLSRDMVKHLNSIEEQILESLAWSHDSALWEALQVSANKVPTCEEVIFPNNFETGNGGNVQGHLPLMPMSPLMHPRVKEVRTDSGSLRRDMQPLSPISVHERYSSPTAGSAKRRLFGEDPPKEMLMDKIITEGTKLKIAPSSSITAENVSILPGQTLLTMATAPVTGTTGHKVTIPLHGVANDAGEITLIPLSMNTNQESKVKSPVSLTAHSLIGASPKQTNLTKAQEVHSTGINRPKRTGSLALFYRKVYHLASVRLRDLCLKLDVSNELRRKIWTCFEFTLVHCPDLMKDRHLDQLLLCAFYIMAKVTKEERTFQEIMKSYRNQPQANSHVYRSVLLKSIPREVVAYNKNINDDFEMIDCDLEDATKTPDCSSGPVKEERGDLIKFYNTIYVGRVKSFALKYDLANQDHMMDAPPLSPFPHIKQQPGSPRRISQQHSIYISPHKNGSGLTPRSALLYKFNGSPSKSLKDINNMIRQGEQRTKKRVIAIDSDAESPAKRVCQENDDVLLKRLQDVVSERANH
